# Among all 78,000 compounds or so, about 1,800 (2.3%) were called active. This list was built around the results that the source calls inconclusive (neither active nor inactive); the mix of calls is not that of the screen. Rule as the data show it: active = inhibition above about 30%; inconclusive = mostly about 10% to 28%; inactive = weaker than that. A structure can be active in one record and inactive in another.
# Chains of the proteins cited; added tags and fusions are not shown. Lines headed by an entry give the natural chain unless they say otherwise; changes in a name come on top.
# UniProt Q01638: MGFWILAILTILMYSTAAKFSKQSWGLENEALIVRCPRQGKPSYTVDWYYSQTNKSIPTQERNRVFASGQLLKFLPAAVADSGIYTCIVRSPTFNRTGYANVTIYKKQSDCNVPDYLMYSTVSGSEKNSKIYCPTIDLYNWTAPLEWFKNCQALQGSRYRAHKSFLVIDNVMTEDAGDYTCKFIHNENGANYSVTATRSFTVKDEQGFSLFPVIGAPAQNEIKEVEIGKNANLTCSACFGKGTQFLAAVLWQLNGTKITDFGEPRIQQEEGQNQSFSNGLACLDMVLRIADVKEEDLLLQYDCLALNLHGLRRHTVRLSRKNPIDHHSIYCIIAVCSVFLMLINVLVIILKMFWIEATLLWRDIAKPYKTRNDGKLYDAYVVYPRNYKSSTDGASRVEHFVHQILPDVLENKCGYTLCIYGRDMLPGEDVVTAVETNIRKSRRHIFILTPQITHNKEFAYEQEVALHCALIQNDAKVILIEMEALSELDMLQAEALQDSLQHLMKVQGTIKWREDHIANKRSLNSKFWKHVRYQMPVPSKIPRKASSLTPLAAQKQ
# Biological target: Interleukin-1 receptor-like 1 (Homo sapiens) (UniProt Q01638)
# Experiment: blocks human ST2 binding to IL-33, primary screen, biochemical, AlphaLISA (AID 1259354)
# Conditions: AlphaLISA ST2-Fc/biotin-IL-33 interaction, 1 h; at 17 µM, stronger effect = higher value
row,SMILES,inhibition
1,CN(CC(=O)Nc1nccs1)S(=O)(=O)c1ccc2c(c1)CCC(=O)N2,inconclusive: 20%
2,O=[N+]([O-])c1ccc(N2CCN(Cc3ccsc3)CC2)cc1,inactive
3,C=CC(C)(O)CC[C@H]1C(=C)CCC2[C@](C)(C(=O)O)CCC[C@@]21C (stereo not given in full),inactive
4,C=CCSc1nc(-c2cccs2)ccc1C#N,inconclusive: 21%
5,Cc1oc2ccc(OCC(=O)O)cc2c1C(=O)OC(C)C,inconclusive: 13%
6,COc1ccc(NC(=O)c2cnc3n(c2=O)CCS3)c(OC)c1,inactive
7,CCCn1c(CCNC(=O)C(C)(C)C)nc2ccccc21,inactive
8,Cc1cccc(C2NC(=O)c3c(sc4c3CCN(C)C4)N2)c1O (stereo not given),inconclusive: 11%
9,Cn1c(CN2CCCC(OCc3ccccn3)C2)cc2cc(F)ccc21 (stereo not given),inconclusive: 24%
10,COc1ccc(OC)c(NC(=O)Nc2ccccc2Sc2cc(C)nc3ncnn23)c1,inconclusive: 11%
11,Cc1cc(Br)ccc1NC(=O)C(NS(=O)(=O)c1cccs1)C(C)C (stereo not given),inconclusive: 11%
12,Cc1ccc(F)c(NC(=O)CN(Cc2ccccn2)CC2CCCO2)c1 (stereo not given),inconclusive: 11%
13,CCS(=O)(=O)c1ccc2oc(=O)c(C=C(O)c3ccc([N+](=O)[O-])cc3)nc2c1,inactive
14,O=C1S/C(=C/c2ccc(O)cc2)C(=O)N1c1ccc(Cl)cc1,inconclusive: 15%
15,O=C(Nc1ccc(Br)cc1)c1cc2ccccn2n1,inconclusive: 26%
16,O=C(CC1COCCN1)NCc1cn2ccccc2n1 (stereo not given),inconclusive: 15%
17,COc1ccc(N=C2C(=O)N(CN3CCC(C)CC3)c3ccc(Br)cc32)cc1,inconclusive: 27%
18,COc1ccc(C2=NN(CC(=O)N3CCCC3)C(=O)CC2)cc1,inactive
19,Nc1nc2n(n1)C(c1ccc(OCc3ccccc3)cc1)CC(c1ccc(Cl)cc1)N2 (stereo not given),inconclusive: 20%
20,O=c1[nH]cnc2c1CCN(S(=O)(=O)Cc1cc(Cl)cc(Cl)c1)C2,inconclusive: 15%
21,O=C(O[n+]1ccc(N2CCOCC2)cc1)N1CCCCC1,inactive
22,CCCCN1CCN(Cc2nc(-c3ccco3)oc2C)CC1,inconclusive: 15%
23,Cc1cc(C)cc(NC(=O)CC(=O)N[C@@H]2C[C@H]2c2ccccc2)c1,inactive
24,CCS(=O)(=O)c1ccc(O)c(NC(=O)/C=C/c2ccccc2)c1,inconclusive: 14%

# Nothing new here: an excerpt of the list.
row,SMILES,inhibition
1,CN(CC(=O)Nc1nccs1)S(=O)(=O)c1ccc2c(c1)CCC(=O)N2,inconclusive: 20%
2,O=[N+]([O-])c1ccc(N2CCN(Cc3ccsc3)CC2)cc1,inactive
3,C=CC(C)(O)CC[C@H]1C(=C)CCC2[C@](C)(C(=O)O)CCC[C@@]21C (stereo not given in full),inactive
4,C=CCSc1nc(-c2cccs2)ccc1C#N,inconclusive: 21%
5,Cc1oc2ccc(OCC(=O)O)cc2c1C(=O)OC(C)C,inconclusive: 13%

# Next entries follow.

row,SMILES,inhibition
1,CCc1ccccc1NC(=O)c1cc2cc3ccc(OC)cc3nc2o1,inconclusive: 10%
2,CC(C(=O)Nc1ccc(S(=O)(=O)Nc2nccs2)cc1)N1C(=O)c2ccccc2C1=O (stereo not given),inconclusive: 12%
3,Cc1cccc(NC(=O)CC(=O)N(C)Cc2nccn2Cc2ccccc2)c1C,inconclusive: 12%
4,Cc1cccc(-n2ccnc2-c2cnc(-c3ccccn3)nc2)c1,inconclusive: 15%
5,COc1ccc(CNC(=O)CC[C@H]2CNC(=O)[C@@H]3[C@@H](CCN3C(C)C)N2C)cc1,inconclusive: 11%
6,O=C1CC2(CCN(S(=O)(=O)c3ccc(-n4cccn4)cc3)CC2)CN1,inactive
7,O=[N+]([O-])c1ccc(-c2nc(NCc3cccnc3)c3ccccc3n2)cc1,active: 96%
8,CCOC(=O)c1nn(CC(C)C)c2c1CN(C(=O)CSc1nnc(C)s1)CC2,inconclusive: 10%
9,CN1CC=C(CNc2cccc3c2CCCC3)CC1,inconclusive: 11%
10,Cc1ccccc1-c1noc(CN(C)C(C)c2ccon2)n1 (stereo not given),inconclusive: 13%
11,C#CCOc1cc(Br)c(C=O)cc1OC,inconclusive: 11%
12,O=C(NCCN1CCOCC1)c1cccc(F)c1,inconclusive: 19%
13,Cc1c(C(=O)N2CCC(O)(C(=O)O)CC2)sc2ccccc12,inconclusive: 16%
14,COC(=O)c1cc2n(n1)CCN(Cc1cc3ccc(C)cc3[nH]c1=O)C2,inconclusive: 10%
15,O=C(CN1C(=O)C2(OCCO2)c2ccccc21)c1ccc(F)cc1,inconclusive: 10%
16,CN(C(=O)c1cc2c(=O)n3ccccc3nc2n1C)C1CCCCC1,inconclusive: 13%
17,CNC(=O)C1CCC(Cn2c(=O)c3sccc3n(CC(=O)Nc3cccc(C)c3)c2=O)CC1 (stereo not given),inconclusive: 11%
18,O=C(C[C@@H]1O[C@H](CNC(=O)NC2CCCCC2)[C@@H](O)[C@H]1O)Nc1ccccc1,inactive
19,C#CCN(Cc1ccccc1Cl)C(=O)CSc1nnc(C)s1,inconclusive: 13%
20,Cc1[nH]nc(-c2ccccc2)c1Sc1ccccc1,inconclusive: 10%
21,COc1ccc(Nc2cc(C)nc(Nc3ccc(NC(=O)c4ccc(Br)o4)cc3)n2)cc1,inconclusive: 26%
22,C=CCNC(=O)c1c(NC(=O)c2ccccc2[N+](=O)[O-])sc2c1CCCC2,inconclusive: 20%
23,COc1cccc(CN2CC(C(=O)N(C)Cc3nonc3C)CCC2=O)c1 (stereo not given),inconclusive: 13%
24,O=C1CCCN1C1CCCN(CCS(=O)(=O)c2ccccc2)C1 (stereo not given),inconclusive: 10%

row,SMILES,inhibition
1,Cc1ccc(C2=NN(CC(=O)O)C(=O)CC2)cc1,inconclusive: 11%
2,CCc1ccc(S(=O)(=O)N=C2C=C(Nc3cccc(C(=O)O)c3)C(=O)c3ccccc32)cc1,active: 52%
3,CN(C)c1nccnc1N1CCC(CO)(Cc2ccc(Cl)cc2)CC1,inconclusive: 17%
4,CC(c1nccs1)N(C)Cc1ncccc1C(=O)O (stereo not given),inconclusive: 11%
5,O=C(Cn1cnc2c(cnn2-c2ccccc2)c1=O)N1CCCc2ccccc21,inactive
6,Cc1ccc(NC(=O)c2cnccn2)c(Br)c1,active: 39%
7,CCN(CC)S(=O)(=O)c1ccc(NC2c3ccccc3C(=O)N2Cc2ccccc2)cc1 (stereo not given),inconclusive: 13%
8,COc1cc(C2Nc3ccccc3NC3=C2C(=O)CC(c2cccs2)C3)cc(Cl)c1O (stereo not given),inconclusive: 18%
9,COc1ccc(-c2ccc3c(c2)C(=O)N2CC[C@H](NC(=O)NC(C)C)[C@H]2C(=O)N3)c(OC)c1,inconclusive: 11%
10,COc1cc(NC(C)=O)c(OC)cc1NC(C)=O,inactive
11,CCOc1ccc(NC(=O)Nc2nnc(-c3ccc([N+](=O)[O-])cc3)s2)cc1,inactive
12,CN(Cc1cccc(-n2cccn2)c1)C(=O)c1ccc2nc(C3CCCCC3)oc2c1,inconclusive: 12%
13,COc1ccc(-c2noc(CN(C)Cc3n[nH]c4c3CCCCC4)n2)c(OC)c1OC,inactive
14,CCCOC(=O)COc1ccc2c(=O)c(-c3ccc(Cl)cc3)coc2c1,inconclusive: 11%
15,CCOc1ccc(-c2n[nH]c(C)c2Oc2ccccc2)c(O)c1,inactive
16,CC(c1nccs1)N(C)C(=O)c1ccc(-n2cnnc2)cc1 (stereo not given),inactive
17,COc1ccc(/C=c2\sc3n(c2=O)CN(c2cccc(C(C)=O)c2)CN=3)cc1,inconclusive: 16%
18,O=[N+]([O-])c1ccccc1CN1C[C@H](O)C[C@H]1c1nc(Cc2ccc(F)cc2Cl)no1,inactive
19,CCNc1nc(NCC)n2c(SCC(=O)c3ccc(C(C)(C)C)cc3)nnc2n1,active: 36%
20,Cc1ccc(CN2CC34C=CC(O3)C(C(=O)NCc3ccco3)C4C2=O)cc1 (stereo not given),inconclusive: 10%
21,Cc1cc(C(=O)N(C)Cc2snnc2C)nc(C)n1,inactive
22,CCCC1C(C#N)=C(N)Oc2n[nH]c(CC(=O)OC)c21 (stereo not given),inactive
23,CCc1ncc(C(=O)N2CCC3(CC2)N=C(c2cccc(C)c2)NC3=O)cn1,inconclusive: 18%
24,OCCn1nc(-c2ccccc2)cc1-c1ccccc1,inconclusive: 12%

# Quoted from the listing:
# Entry for Cc1cc(Br)ccc1NC(=O)C(NS(=O)(=O)c1cccs1)C(C)C (stereo not given) under inhibition: inconclusive: 11%
# Entry for Cc1cc(C(=O)N(C)Cc2snnc2C)nc(C)n1 under inhibition: inactive
# Entry for Cc1cccc(C2NC(=O)c3c(sc4c3CCN(C)C4)N2)c1O (stereo not given) under inhibition: inconclusive: 11%

# Later entries:

row,SMILES,inhibition
1,COc1ccc2c(=O)c(Oc3ccccc3)c(C(F)(F)F)oc2c1,inactive
2,CC(=O)N1c2ccc(N=Cc3cc(Br)cc(Br)c3O)cc2CC1C (stereo not given),inactive
3,CCSc1nnc2c(n1)OC(c1ccncc1)Nc1ccc(Br)cc1-2 (stereo not given),inactive
4,CC1CCCN(S(=O)(=O)c2ccc(C(=O)Nc3nnc(C4CC4)o3)cc2)C1 (stereo not given),inconclusive: 25%
5,Cc1ccn2c(NC(=O)CC(C)C)c(-c3ccc(F)cc3)nc2c1,inactive
6,CN(C)c1ccc(C2C(C#N)=C(N)N(c3ccc(Cl)cc3)C3=C2C(=O)CCC3)cc1 (stereo not given),inconclusive: 26%
7,C=CCc1cc(C)ccc1OCCOCCN1CCOCC1,inconclusive: 21%
8,CCc1noc(CN(CC)C(=O)C(C)Oc2cc(C)ccc2C)n1 (stereo not given),inconclusive: 15%
9,CCN1CCCC1CNC(=O)c1cc(-c2ccc(Br)s2)nc2ccccc12 (stereo not given),inconclusive: 12%
10,CN1CCc2c(sc3c2C(=O)NC(c2cccc(OC(=O)c4cccs4)c2)N3)C1 (stereo not given),inconclusive: 15%
11,COc1ccccc1NC(=O)Cc1c(C(=O)O)n(C)c2ccccc12,inconclusive: 10%
12,c1ccc(CN2CCC(n3ccnc3-c3cnc[nH]3)C2)cc1 (stereo not given),inconclusive: 24%
13,COCCn1cc(C(=O)NCc2ccc(C)o2)c2c3ccccc3n(C)c2c1=O,inactive
14,Cc1cc(N(C)C)nc(Nc2ccc(NC(=O)C3CCCCC3)cc2)n1,inconclusive: 27%
15,CC1=C(n2nnc3ccccc32)C(c2ccccc2)C(C#N)=C(N)O1 (stereo not given),inactive
16,COc1ccc(C(=O)NC2CC(=O)N(c3cccc(F)c3)C2)c(OC)c1 (stereo not given),inconclusive: 11%
17,NS(=O)(=O)c1ccc(NC(=O)c2ccccc2)cc1,inactive
18,COc1ccc(OCC(=O)Nc2cccc(OCc3cc(=O)n4ccc(C)cc4n3)c2)cc1,inconclusive: 12%
19,O=C(NC1CC1)C1CC(=O)N(C2CCCCCC2)C1 (stereo not given),inconclusive: 13%
20,O=C(N1CCN(c2ccccn2)CC1)C1(S(=O)(=O)c2ccc(Cl)cc2)CC1,inconclusive: 14%
21,Cc1ccc(S(=O)(=O)Nc2cc(C)c(O)c(Br)c2)cc1,inactive
22,COCCOC(=O)C1=C(C)N=C2SCCC(=O)N2C1c1ccc(Cl)cc1 (stereo not given),inconclusive: 11%
23,Cc1ccc(C2C(C#N)=C(N)Oc3cc(O)ccc32)cc1 (stereo not given),inconclusive: 12%

# — PubChem BioAssay AID1259354 (Paczesny and Yang Labs, IUPUI and University of Michigan, 2018)
